Assay results taken from patent publication US12414947B2, “Use of FGFR inhibitors for treatment of idiopathic short stature” (CEDARS-SINAI MEDICAL CENTER, priority 2019, dated 2025).

Tests used:
[1] = tested on: AKT signaling in osteogenic cells derived from hMSC; conditions: 200 nM, 30 min pretreatment; IGF-I 100 ng/ml for 0.5 h; serum free media
Description: (§1) In vitro assays, with read-outs: signaling (pERK, pAKT), proliferation/survival assays (WST-1).

[2] = tested on: pERK1/2 and pAKT signaling in Patient normal fibroblast cells
Description: FIG. 4 depicts signaling effects. […] Test working hypothesis using Patient's normal fibroblast cells as the model system. Fibroblasts, grown in αMEM+15% FBS till ˜80% confluency, were serum-starve for 18 hr in αMEM+0.1% BSA.
as §1

With `COc1cc(OC)cc(N(CCNC(C)C)c2ccc3ncc(-c4cnn(C)c4)nc3c2)c1` [Erdafitinib, erdafitinib] the “AKT signaling inhibition and effect of IGF-I” value [1] was “reversed by IGF-I”, the “background activated pERK1/2 and pAKT signaling” value ([2]; 100 nM-300 nM, serum-starved, 30 min pre-treatment, lysates 2 hr post-treatment) was “strongly suppressed” and the “reversal of signaling inhibition by growth factors” value ([2]; IGF-I 100 ng/ml, FGF2 40 ng/ml, IGF-2 100 ng/ml) was “partially reversed by IGF-I and IGF2 but not by FGF2”. The “pAKT activated by IGF-I and IGF-2” value ([2]; all concentrations of erdafitinib (0-300 nM)) was “remains activated”.
